Measurements published in patent US20170233472A1.
Substitutions are numbered along the chain they refer to. These are yes or no findings as the source states them, for the method shown. Some binding calls cover weakened binding; strength is not graded here.

By UniProt entry, the sequences of proteins in these tests, tags left out. Where a name states a change or a piece, a line headed by the entry shows the natural chain unless it says otherwise.
UniProt Q01973: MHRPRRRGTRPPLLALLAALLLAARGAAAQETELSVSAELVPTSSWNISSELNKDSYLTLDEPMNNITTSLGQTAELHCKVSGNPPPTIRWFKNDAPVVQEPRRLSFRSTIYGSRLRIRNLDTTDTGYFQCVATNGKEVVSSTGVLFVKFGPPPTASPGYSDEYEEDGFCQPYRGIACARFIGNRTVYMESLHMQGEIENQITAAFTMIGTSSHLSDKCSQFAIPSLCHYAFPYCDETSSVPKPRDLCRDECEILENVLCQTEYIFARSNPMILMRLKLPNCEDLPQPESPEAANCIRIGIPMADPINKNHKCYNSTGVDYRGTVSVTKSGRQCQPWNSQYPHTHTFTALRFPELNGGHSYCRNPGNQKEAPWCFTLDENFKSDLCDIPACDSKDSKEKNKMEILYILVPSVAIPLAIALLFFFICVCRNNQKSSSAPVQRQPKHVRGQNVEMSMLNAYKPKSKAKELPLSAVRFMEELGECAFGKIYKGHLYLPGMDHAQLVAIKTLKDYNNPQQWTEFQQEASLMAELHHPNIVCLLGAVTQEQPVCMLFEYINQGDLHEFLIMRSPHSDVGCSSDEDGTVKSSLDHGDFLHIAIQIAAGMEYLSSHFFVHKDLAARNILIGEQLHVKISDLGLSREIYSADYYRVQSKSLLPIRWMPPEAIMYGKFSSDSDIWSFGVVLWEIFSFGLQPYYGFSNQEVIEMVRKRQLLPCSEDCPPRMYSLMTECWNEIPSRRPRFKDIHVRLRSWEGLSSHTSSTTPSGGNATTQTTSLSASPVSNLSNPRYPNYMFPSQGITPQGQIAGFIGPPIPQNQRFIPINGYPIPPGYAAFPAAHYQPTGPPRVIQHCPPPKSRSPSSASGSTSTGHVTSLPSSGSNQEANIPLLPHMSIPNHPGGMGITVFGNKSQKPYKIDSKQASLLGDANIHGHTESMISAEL

B1: DART-1 (bispecific antibody)
chain 1: QLVLTQSPSASASLGSSVKLTCTLSSGHKTDTIDWYQQQPGKAPRYLMKLEGSGSYNKGSGVPDRFGSGSSSGADRYLTISSLQSEDEADYYCGTDYPGNYLFGGGTQLTVLGGGGSGGGGEVQLVESGGGLVQPGGSLRLSCAASGFTFSTYAMNWVRQAPGKGLEWVGRIRSKYNNYATYYADSVKGRFTISRDDSKNSLYLQMNSLKTEDTAVYYCVRHGNFGNSYVSWFAYWGQGTLVTVSSGGCGGGKVAALKEKVAALKEKVAALKEKVAALKE
chain 2: QAVVTQEPSLTVSPGGTVTLTCRSSTGAVTTSNYANWVQQKPGQAPRGLIGGTNKRAPWTPARFSGSLLGGKAALTITGAQAEDEADYYCALWYSNLWVFGGGTKLTVLGGGGSGGGGQEQLVESGGGLVQPGGSLRLSCAASGFTFSDYYMSWVRQAPGKGLEWVATIYPSSGKTYYADSVKGRFTISSDNAKNSLYLQMNSLRAEDTAVYYCARDSYADDAALFDIWGQGTTVTVSSGGCGGGEVAALEKEVAALEKEVAALEKEVAALEK
B2: DART-26 (bispecific antibody)
chain 1: B1 chain 1 with R76W, Y97N
chain 2: B1 chain 2 with A215T
B3: DART-29 (bispecific antibody)
chain 1: B1 chain 1 with R76W, Y97N
chain 2: B1 chain 2 with F186L, N195D, A215T

Key:
[1] = biological target: His-tagged soluble human ROR1 (shROR1-His) (human) (UniProt Q01973); experiment: sandwich ELISA (FIG. 11A)
[2] = biological target: His-tagged soluble human ROR1 (shROR1-His) (human) (UniProt Q01973); experiment: sandwich ELISA, coated shROR1-His, detection with biotinylated CD3
[3] = biological target: His-tagged soluble human ROR1 (shROR1-His) (human) (UniProt Q01973); experiment: sandwich ELISA: plate coated with shROR1-His, serial dilutions of diabody, bound diabody detected with biotinylated CD3 and streptavidin-HRP; abs @450nm
[4] = biological target: His-tagged soluble human ROR1 (shROR1-His) (human) (UniProt Q01973); experiment: ELISA, plate-coated shROR1-His, relative to DART-1

binding [1] | binding [2] | binding [3] | binding [4] | Binder
binds | binds | binds |  | B1
 |  |  | binds | B2
 |  |  | binds | B3
